Laboratory results published in article PMC9597352.
These are yes or no findings as the source states them, for the method shown. In cells and extracts the contact can be indirect. Some entries that bind do so weakly or less than the wild type.

Protein sequences, listed by entry. Tags and fused reporters are not part of them. Lines headed by an entry give the natural chain unless they say otherwise; changes in a name come on top. Chains listed by the source or under a name are the forms on record and can include a tag or linker. Residues count along the entry.
UniProt Q96T51: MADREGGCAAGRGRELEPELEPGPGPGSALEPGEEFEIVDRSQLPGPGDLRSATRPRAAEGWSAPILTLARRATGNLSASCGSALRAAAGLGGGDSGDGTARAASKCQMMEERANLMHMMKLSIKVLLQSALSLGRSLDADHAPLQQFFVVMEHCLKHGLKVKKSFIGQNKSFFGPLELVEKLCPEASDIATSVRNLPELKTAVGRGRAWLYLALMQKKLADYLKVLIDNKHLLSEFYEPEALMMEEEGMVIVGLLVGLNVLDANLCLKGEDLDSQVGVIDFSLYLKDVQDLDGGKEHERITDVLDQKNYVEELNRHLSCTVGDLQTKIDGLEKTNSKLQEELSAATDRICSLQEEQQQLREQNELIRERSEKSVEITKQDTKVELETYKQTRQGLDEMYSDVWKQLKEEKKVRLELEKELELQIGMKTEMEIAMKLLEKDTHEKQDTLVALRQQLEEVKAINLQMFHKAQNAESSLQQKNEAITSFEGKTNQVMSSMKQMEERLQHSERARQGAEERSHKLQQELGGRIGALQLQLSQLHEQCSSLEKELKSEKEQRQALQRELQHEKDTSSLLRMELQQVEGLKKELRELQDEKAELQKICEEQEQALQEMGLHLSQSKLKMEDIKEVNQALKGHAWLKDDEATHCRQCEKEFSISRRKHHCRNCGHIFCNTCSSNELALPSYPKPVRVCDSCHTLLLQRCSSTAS
GST-LIC1^WT (389–523 a.a.) (Q9Y6G9, residues 389-523): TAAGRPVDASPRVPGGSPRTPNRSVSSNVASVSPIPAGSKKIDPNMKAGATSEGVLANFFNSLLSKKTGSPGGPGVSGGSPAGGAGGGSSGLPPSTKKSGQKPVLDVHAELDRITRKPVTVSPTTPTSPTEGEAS
GST-LIC1^FFAA (F447A/F448A) (Q9Y6G9, form named): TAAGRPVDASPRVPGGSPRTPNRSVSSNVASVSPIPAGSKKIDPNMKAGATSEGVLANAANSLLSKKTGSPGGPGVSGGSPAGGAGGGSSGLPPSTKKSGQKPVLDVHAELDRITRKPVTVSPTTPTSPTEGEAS
UniProt Q9NVJ2: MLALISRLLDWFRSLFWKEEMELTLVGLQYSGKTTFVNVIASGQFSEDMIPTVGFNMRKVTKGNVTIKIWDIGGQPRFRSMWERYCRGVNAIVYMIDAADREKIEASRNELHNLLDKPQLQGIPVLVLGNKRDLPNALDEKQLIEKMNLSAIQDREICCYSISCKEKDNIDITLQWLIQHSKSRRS
UniProt Q9Y4G2: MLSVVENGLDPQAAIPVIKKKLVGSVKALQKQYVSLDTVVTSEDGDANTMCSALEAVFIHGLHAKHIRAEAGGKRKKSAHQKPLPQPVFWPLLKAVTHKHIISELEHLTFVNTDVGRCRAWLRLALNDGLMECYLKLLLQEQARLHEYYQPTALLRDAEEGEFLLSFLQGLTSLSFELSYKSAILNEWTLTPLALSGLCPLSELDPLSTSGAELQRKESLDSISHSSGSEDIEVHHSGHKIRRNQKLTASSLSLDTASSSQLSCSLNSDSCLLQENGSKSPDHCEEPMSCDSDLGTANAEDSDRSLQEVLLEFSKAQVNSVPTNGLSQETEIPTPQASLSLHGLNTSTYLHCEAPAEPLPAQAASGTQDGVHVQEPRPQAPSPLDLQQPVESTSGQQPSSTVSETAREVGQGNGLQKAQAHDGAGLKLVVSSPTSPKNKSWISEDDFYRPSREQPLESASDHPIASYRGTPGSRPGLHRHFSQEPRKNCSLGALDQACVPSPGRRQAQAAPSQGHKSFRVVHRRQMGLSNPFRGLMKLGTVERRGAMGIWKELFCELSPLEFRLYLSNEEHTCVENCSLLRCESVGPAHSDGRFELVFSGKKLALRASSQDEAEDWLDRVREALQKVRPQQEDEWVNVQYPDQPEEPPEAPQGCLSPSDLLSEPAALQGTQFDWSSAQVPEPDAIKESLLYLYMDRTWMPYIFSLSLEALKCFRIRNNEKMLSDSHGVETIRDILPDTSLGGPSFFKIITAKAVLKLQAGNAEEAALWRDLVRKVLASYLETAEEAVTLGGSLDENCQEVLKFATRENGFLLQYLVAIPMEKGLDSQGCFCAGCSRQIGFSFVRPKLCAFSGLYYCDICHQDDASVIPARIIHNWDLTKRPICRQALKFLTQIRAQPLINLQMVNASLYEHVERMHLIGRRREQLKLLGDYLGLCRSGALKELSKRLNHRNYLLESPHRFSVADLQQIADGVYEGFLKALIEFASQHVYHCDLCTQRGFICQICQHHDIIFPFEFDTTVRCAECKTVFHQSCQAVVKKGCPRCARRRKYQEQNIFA

Assays:
[1] = biological target: RUFY1 (endogenous, HEK293T) (human (endogenous in HEK293T)) (UniProt Q96T51); assay: co-IP; endogenous proteins, HEK293T lysates; anti-RUFY1 antibody on Protein-A/G beads
[2] = biological target: GST-LIC1^WT (389–523 a.a.) (human) (UniProt Q9Y6G9); assay: pull-down; GST-LIC1 (389–523; WT or FFAA) on glutathione-agarose beads, HEK293T lysates expressing RUFY1-FLAG or 2x-FKBP-GFP-RUFY1 (WT or mutants), 2 h, 4°C; anti-FLAG or anti-GFP blot; only the target purified
[3] = biological target: GST-LIC1^FFAA (F447A/F448A) (human) (UniProt Q9Y6G9); assay: as above
[4] = biological target: Arl8b (endogenous, HeLa) (human (endogenous in HeLa)) (UniProt Q9NVJ2); assay: co-IP; endogenous proteins, HeLa lysates; anti-Arl8a/b antibody-conjugated agarose beads, or anti-Rab8 antibodies on Protein A/G beads

p150^glued (dynactin) (from UniProt Q14203-1 1-1278)
binding [1]: binds

RUFY1 (WT)-FLAG (longer isoform, Rabip4′) (from UniProt Q96T51 1-708)
binding [2]: binds
binding [3]: binds

PLEKHM1 (endogenous, HeLa) (from UniProt Q9Y4G2 1-1056)
binding [4]: binds

2x-FKBP-GFP-RUFY1 (FL) (from UniProt Q96T51 1-708)
binding [2]: binds
